Values from PubChem BioAssay AID1224828 (NIAID, 2016).

Assay: 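Regulators linking TLR4 signalling to p65 nuclear translocation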 (primary screen)
Cell system: mouse RAW264.7 G9 macrophage reporter cells (GFP-p65, Tnf promoter-mCherry)
Reagent: siRNA pool against mouse genes, 100 nM
Duration: 2 days siRNA transfection, then 40 min LPS before fixation
Treatment: LPS (Salmonella minnesota R595) at 10 ng/ml
Measurement: 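Microscopy ratio of nuclear to perinuclear-ring GFP-p65 signal, scaled to the plate median; gene score is the average of two replicate robust z-scores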
Scale: p65 translocation robust z-score: higher = more nuclear NF-kappaB p65 after LPS than the plate median; nuclear/cytoplasmic p65 ratio: higher = more nuclear NF-kappaB p65
Hit rule: 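Active if robust z is above 3.3 (negative regulators) or below -1.56, the Tlr4 control median (positive regulators); activity score 50 or more; control wells not called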
Calls: active = hit (p65 shift raised or lowered); inactive = no clear change
The deposit covers about 17,000 reagents; below is an unselected part. Of all reagents, 762 (4.5%) were called active. 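Active calls include both raised and lowered p65 entry, mostly lowered; wells with fewer than 50 cells lack a z-score.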 Raw values vary from plate to plate and are shown uncorrected. The numbers tell different reagents against one gene apart.

no.	gene	pool no.	p65 translocation robust z-score	nuclear/cytoplasmic p65 ratio, rep 1	nuclear/cytoplasmic p65 ratio, rep 2	low cell count flag	Call
1	Tspo2 (translocator protein 2)	1	0.71	1.53	1.41	enough cells to score	inactive
2	Nsun7 (NOL1/NOP2/Sun domain family, member 7)	1		1.24	1.36	fewer than 50 cells per well; well left out of scoring	inactive
3	Cldn3 (claudin 3)	1	-0.83	1.31	1.31	enough cells to score	inactive
4	Mettl22 (methyltransferase 22, Kin17 lysine)	1	-0.12	1.65	1.72	enough cells to score	inactive
5	Htr6 (5-hydroxytryptamine (serotonin) receptor 6)	1	0.68	1.56	1.73	enough cells to score	inactive
6	Pik3c2b	1	0.21	1.84	1.32	enough cells to score	inactive
7	4930412C18Rik (RIKEN cDNA 4930412C18 gene)	1	0.65	1.42	1.57	enough cells to score	inactive
8	Ctnnd2 (catenin delta 2)	1	0.13	1.43	1.44	enough cells to score	inactive
9	Crygn (crystallin, gamma N)	1	0.6	1.66	1.89	enough cells to score	inactive
10	Rnf216 (ring finger protein 216)	1	-0.63	1.44	1.28	enough cells to score	inactive
11	Crhr2 (corticotropin releasing hormone receptor 2)	1		1.54	1.58	fewer than 50 cells per well; well left out of scoring	inactive
12	Dynlrb1 (dynein light chain roadblock-type 1)	1	-0.56	1.4	1.29	enough cells to score	inactive
13	Usp17lc (ubiquitin specific peptidase 17-like C)	1	1.02	1.67	1.43	enough cells to score	inactive
14	Itgax (integrin alpha X)	1	-0.1	1.41	1.41	enough cells to score	inactive
15	Dmbx1 (diencephalon/mesencephalon homeobox 1)	1		1.8	1.45	fewer than 50 cells per well; well left out of scoring	inactive
16	Xdh (xanthine dehydrogenase)	1	-0.57	1.49	1.37	enough cells to score	inactive
17	Ceacam2 (CEA cell adhesion molecule 2)	1	2.09	1.75	2.29	enough cells to score	inactive
18	Parp16 (poly (ADP-ribose) polymerase family, member 16)	1		2.34	1.19	fewer than 50 cells per well; well left out of scoring	inactive
19	Hipk1 (homeodomain interacting protein kinase 1)	1		1.56	1.53	fewer than 50 cells per well; well left out of scoring	inactive
20	Asb9 (ankyrin repeat and SOCS box-containing 9)	1	0.03	1.51	1.61	enough cells to score	inactive
21	Ablim2 (actin-binding LIM protein 2)	1	-0.23	1.61	1.61	enough cells to score	inactive
22	Zfr (zinc finger RNA binding protein)	1		1.5	1.05	fewer than 50 cells per well; well left out of scoring	inactive
23	Adamts8 (ADAM metallopeptidase with thrombospondin type 1 motif 8)	1	-0.5	1.56	1.53	enough cells to score	inactive
24	Gpc3 (glypican 3)	1	0.82	1.55	1.48	enough cells to score	inactive
25	Usp49 (ubiquitin specific peptidase 49)	1	-1.36	1.28	1.34	enough cells to score	inactive
26	Abcc5 (ATP-binding cassette, sub-family C member 5)	1	0.78	1.79	1.67	enough cells to score	inactive
27	Grp (gastrin releasing peptide)	1	0.36	1.42	1.48	enough cells to score	inactive
28	Rabac1 (Rab acceptor 1 (prenylated))	1	1.91	1.74	1.83	enough cells to score	inactive
29	Pou3f4 (POU domain, class 3, transcription factor 4)	1	0.37	1.54	1.46	enough cells to score	inactive
30	Hspa8 (heat shock protein family A (Hsp70) member 8)	1		2.54	1.18	fewer than 50 cells per well; well left out of scoring	inactive
31	Ormdl2 (ORM1-like 2 (S. cerevisiae))	1	-0.28	1.4	1.21	enough cells to score	inactive
32	Mical1	1	1.11	1.85	1.72	enough cells to score	inactive
33	Svs3a (seminal vesicle secretory protein 3A)	1	1.44	1.66	1.35	enough cells to score	inactive
34	Prep (prolyl endopeptidase)	1	-0.45	1.37	1.12	enough cells to score	inactive
35	Rab6a (RAB6A, member RAS oncogene family)	1	2.82	1.86	1.97	enough cells to score	inactive
36	Fzd7 (frizzled class receptor 7)	1	-0.47	1.45	1.51	enough cells to score	inactive
37	Fgg (fibrinogen gamma chain)	1	1.56	1.62	1.59	enough cells to score	inactive
38	Mrps23 (mitochondrial ribosomal protein S23)	1	-2.1	1.44	1.28	enough cells to score	active
39	Ppp1r14d (protein phosphatase 1, regulatory inhibitor subunit 14D)	1	1.17	1.67	1.56	enough cells to score	inactive
40	Jak1 (Janus kinase 1)	1	0.3	1.75	1.4	enough cells to score	inactive
41	Acap3 (ArfGAP with coiled-coil, ankyrin repeat and PH domains 3)	1	0.86	1.69	1.96	enough cells to score	inactive
42	Tas2r118 (taste receptor, type 2, member 118)	1	1.13	1.67	2.29	enough cells to score	inactive
43	Ildr1 (immunoglobulin-like domain containing receptor 1)	1	-0.03	1.55	1.55	enough cells to score	inactive
44	Dnajc28 (DnaJ heat shock protein family (Hsp40) member C28)	1	0.22	1.51	1.24	enough cells to score	inactive
45	Pcbp1 (poly(rC) binding protein 1)	1	0.74	1.46	1.33	enough cells to score	inactive
46	Smad5 (SMAD family member 5)	1	-0.35	1.49	1.51	enough cells to score	inactive
47	Pten (phosphatase and tensin homolog)	1	-0.26	1.39	1.44	enough cells to score	inactive
48	Pten (phosphatase and tensin homolog)	2	-0.19	1.47	1.9	enough cells to score	inactive
49	Slc44a3	1	1.21	1.76	2.05	enough cells to score	inactive
50	Bpifa5 (BPI fold containing family A, member 5)	1	-1.77	1.13	1.07	enough cells to score	active
51	Nxt2 (nuclear transport factor 2-like export factor 2)	1	0.42	1.33	1.61	enough cells to score	inactive
52	Gas6 (growth arrest specific 6)	1		1.57	1.45	fewer than 50 cells per well; well left out of scoring	inactive
53	Zfp352 (zinc finger protein 352)	1	0.79	1.61	1.26	enough cells to score	inactive
54	Cplx3 (complexin 3)	1	2.82	2.08	2.02	enough cells to score	inactive
55	C230029D21Rik (retired record)	1		1.39	1.41	fewer than 50 cells per well; well left out of scoring	inactive
56	Or52b3 (olfactory receptor family 52 subfamily B member 3)	1	0.92	1.53	1.38	enough cells to score	inactive
57	Parp11 (poly (ADP-ribose) polymerase family, member 11)	1	-0.54	1.25	1.44	enough cells to score	inactive
58	Galk1 (galactokinase 1)	1	-1.29	1.52	1.19	enough cells to score	inactive
59	Ryr3 (ryanodine receptor 3)	1	0.21	1.49	1.21	enough cells to score	inactive
